These are literature values, as cited in patent publication US9968621B2, “Parenteral compositions of celecoxib” (Dr. Reddy's Laboratories Ltd., priority 2014, dated 2018).

Molecules are shown by their SMILES.

As for `Cc1ccc(-c2cc(C(F)(F)F)nn2-c2ccc(S(N)(=O)=O)cc2)cc1` [Celecoxib, 4-[5-(4-methylphenyl)-3-(trifluoromethyl)-1H-pyrazol-1-yl] benzenesulfonamide], the Solubility in water entry was “essentially insoluble in water”.
